Reference: publication doi:10.1101/2025.08.31.673341
No constants are given. Whether binding was seen depends on the method and setting. For some assays here: Binding calls can cover weak binding; strength is not graded here. Where a sequence is shown, tags or fusion partners need not be part of it. For some assays here: Binding seen in cells or lysates may run through a third protein.

Tests used:
[1] = molecular target: T1, REVEILLE6 (RVE6), GAL4 activation domain fusion (Arabidopsis) (UniProt Q8H0W3); experiment: two-hybrid
T1 sequence: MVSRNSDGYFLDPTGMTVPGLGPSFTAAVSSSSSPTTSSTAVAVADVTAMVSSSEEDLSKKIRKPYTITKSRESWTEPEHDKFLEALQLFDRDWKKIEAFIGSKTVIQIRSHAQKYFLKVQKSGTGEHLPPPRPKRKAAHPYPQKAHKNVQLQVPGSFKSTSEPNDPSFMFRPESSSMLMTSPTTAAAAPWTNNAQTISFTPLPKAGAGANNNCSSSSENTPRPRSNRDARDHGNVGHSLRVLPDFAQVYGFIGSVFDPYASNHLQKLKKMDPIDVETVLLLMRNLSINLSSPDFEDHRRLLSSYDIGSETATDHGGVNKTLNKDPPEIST

[2] = molecular target: T2, CK2, GAL4 activation domain fusion (Arabidopsis) (UniProt Q08466); experiment: two-hybrid
T2 sequence: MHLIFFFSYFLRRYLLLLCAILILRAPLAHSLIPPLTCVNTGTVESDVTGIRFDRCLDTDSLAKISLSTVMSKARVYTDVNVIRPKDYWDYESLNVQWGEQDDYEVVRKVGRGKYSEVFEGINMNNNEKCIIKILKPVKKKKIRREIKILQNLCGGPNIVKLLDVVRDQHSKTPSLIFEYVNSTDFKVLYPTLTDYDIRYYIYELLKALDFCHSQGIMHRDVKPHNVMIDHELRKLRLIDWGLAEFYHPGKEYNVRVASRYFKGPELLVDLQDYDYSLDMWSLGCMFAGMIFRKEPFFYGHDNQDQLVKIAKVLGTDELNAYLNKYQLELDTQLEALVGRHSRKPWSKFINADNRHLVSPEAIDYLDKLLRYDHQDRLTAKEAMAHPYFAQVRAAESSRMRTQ

[3] = molecular target: T3, LATE ELONGATED HYPOCOTYL (LHY), GAL4 activation domain fusion (Arabidopsis) (UniProt Q6R0H1); experiment: two-hybrid
T3 sequence: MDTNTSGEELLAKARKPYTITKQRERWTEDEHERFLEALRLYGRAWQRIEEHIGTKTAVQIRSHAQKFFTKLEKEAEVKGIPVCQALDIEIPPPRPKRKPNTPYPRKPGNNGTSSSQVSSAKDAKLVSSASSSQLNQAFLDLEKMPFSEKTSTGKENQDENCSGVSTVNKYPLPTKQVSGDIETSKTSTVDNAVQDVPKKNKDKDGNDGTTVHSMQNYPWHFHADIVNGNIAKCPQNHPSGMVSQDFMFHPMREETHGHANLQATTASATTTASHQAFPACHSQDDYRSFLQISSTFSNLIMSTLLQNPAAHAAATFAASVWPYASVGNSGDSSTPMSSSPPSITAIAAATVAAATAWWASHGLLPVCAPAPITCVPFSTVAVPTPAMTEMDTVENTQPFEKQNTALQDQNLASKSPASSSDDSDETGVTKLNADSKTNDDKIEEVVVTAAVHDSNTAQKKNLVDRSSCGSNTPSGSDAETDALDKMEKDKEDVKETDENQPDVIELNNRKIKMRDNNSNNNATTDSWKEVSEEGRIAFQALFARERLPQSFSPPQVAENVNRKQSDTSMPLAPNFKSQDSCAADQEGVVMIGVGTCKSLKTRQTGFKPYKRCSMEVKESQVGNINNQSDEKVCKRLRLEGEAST

[4] = molecular target: T4, CK2 fused to the N-terminal part of YFP (YFPn) (Arabidopsis) (UniProt Q08466); experiment: split reporter
T4 sequence: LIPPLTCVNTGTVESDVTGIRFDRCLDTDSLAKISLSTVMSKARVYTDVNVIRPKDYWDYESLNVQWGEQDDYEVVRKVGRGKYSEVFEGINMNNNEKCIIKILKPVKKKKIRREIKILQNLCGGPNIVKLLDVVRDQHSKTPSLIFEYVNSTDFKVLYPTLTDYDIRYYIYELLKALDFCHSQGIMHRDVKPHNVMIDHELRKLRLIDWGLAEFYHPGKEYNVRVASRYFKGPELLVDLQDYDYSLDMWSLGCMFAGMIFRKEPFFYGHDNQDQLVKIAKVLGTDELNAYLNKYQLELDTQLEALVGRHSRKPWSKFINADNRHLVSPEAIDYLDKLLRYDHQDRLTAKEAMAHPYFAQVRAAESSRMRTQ

[5] = molecular target: T5, LHY fused to the N-terminal part of YFP (YFPn) (Arabidopsis) (UniProt Q6R0H1); experiment: split reporter
T5 sequence: T3 sequence

FLAG-LHY (Arabidopsis) = molecular target: T6, FLAG-LHY (Arabidopsis) (UniProt Q6R0H1); experiment: co-IP
T6 sequence: T3 sequence

[6] = molecular target: T7, LIGHT-REGULATED WD1 (LWD1), GAL4 activation domain fusion (Arabidopsis) (UniProt Q9LPV9); experiment: two-hybrid
T7 sequence: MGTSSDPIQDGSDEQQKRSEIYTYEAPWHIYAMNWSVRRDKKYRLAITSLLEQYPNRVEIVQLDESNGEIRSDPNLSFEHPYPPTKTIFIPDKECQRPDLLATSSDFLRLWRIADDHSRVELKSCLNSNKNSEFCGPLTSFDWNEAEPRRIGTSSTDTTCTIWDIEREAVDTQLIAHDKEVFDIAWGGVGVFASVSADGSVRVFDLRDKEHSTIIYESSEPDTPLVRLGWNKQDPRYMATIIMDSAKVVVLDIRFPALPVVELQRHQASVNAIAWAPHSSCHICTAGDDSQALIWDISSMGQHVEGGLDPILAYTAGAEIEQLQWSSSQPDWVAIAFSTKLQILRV

ALTERED CLOCK F-BOX 1 (ACF1) decoy, GAL4 DNA-binding domain fusion (Arabidopsis) (domain or fragment)
binding [1]: binds

PLANT U-BOX 18 (PUB18) decoy, GAL4 DNA-binding domain fusion (Arabidopsis) (domain or fragment)
binding [2]: binds | binding [3]: binds

U-box-deleted PUB18 (PUB18dU) fused to the C-terminal part of YFP (YFPc) (Arabidopsis) (domain or fragment)
binding [4]: no binding | binding [5]: binds

U-box-deleted PUB19 (PUB19dU) fused to the C-terminal part of YFP (YFPc) (Arabidopsis) (domain or fragment)
binding [5]: no binding

YFP-PUB18dU (U-box-deleted PUB18 fused to YFP) (Arabidopsis) (domain or fragment)
binding (FLAG-LHY (Arabidopsis)): binds

ZEITLUPE (ZTL) decoy, GAL4 DNA-binding domain fusion (Arabidopsis) (domain or fragment)
binding [6]: binds
